Assay results: patent US8849577B2, “Methods of identifying biochemical pathways” (Metabolon, Inc., priority 2006, dated 2014)
Entries after “also recorded” stand apart in the source; their conditions may differ. For at least one compound, name, drawing or mass did not settle the structure.

Tested on: preadipocyte cells
Assay: Comparative metabolomic analysis of PPAR activators in preadipocyte cells
Type: cell-based, human
Conditions: 3 hours treatment
Procedure: The cell used in this assay were preadipocyte cells from a human with a BMI of 23.29. The cells were plated at 1 million per well in 6-well plates. Eight cultures were used for each experimental group. The cells were washed with basal medium (1 ml/well) and treated with compounds in 1 ml of basal medium for 3 hours. After treatment, the cells were then washed with PBS (1 ml), two times and then trypsinized with 300 μl for 5 minutes at 37 degrees. One ml of PM-1 was then added per well to neutralized the trypsin and the cells were collected in 1.5 ml eppendorf tube. The cells were then pelleted by centrifugation (280×g) and the pellets were washed with PBS (1 ml). The cell pellets were then frozen at −80 degrees.

SMILES	metabolite change relative to DMSO control (text, in words)	comparative metabolite levels among the six compounds (FIGS. 7-10, in words) (listed as Troglitzone)	metabolite change relative to DMSO control (text, in words) (listed as troglitazone)	comparative metabolite levels among the six compounds (FIGS. 7-10, in words)
Cc1c(C)c2c(c(C)c1O)CCC(C)(COc1ccc(CC3SC(=O)NC3=O)cc1)O2 (centres unmarked) [Troglitazone, troglitazone]	significant increases in the concentration of aspartate, sn-glycerol-3-phosphate, hypoxanthine, and o-phosphoethanolamine	levels of aspartate were most increased; also recorded: levels of pantothenic acid were most increased	increases in n-hexadecanoic acid (palmitate) and octadecanoic acid (stearate); also recorded: decreases in acetyl N-acetyl ornithine	–
CC1(COc2ccc(CC3SC(=O)NC3=O)cc2)CCCCC1 (centres unmarked) [Ciglitazone]	significant increases in the concentration of aspartate, sn-glycerol-3-phosphate, hypoxanthine, and o-phosphoethanolamine	–	–	levels of N-acetyl-galactosamine were most decreased
